Measurements: PubChem BioAssay AID493014 (National Center for Advancing Translational Sciences (NCATS), 2011)
Screen size: about 340,000 compounds; about 170 (0.05%) were called active. The shares of active, inactive and inconclusive entries below differ from those in the screen. Calls come from the whole dose curve; as a rule, active = well fitted inhibition curve with a large enough effect in the signal ratio, with a control signal flat (not every such curve was filed as active); inconclusive = small, poorly fitted or top-dose-only effect, or effect the other way, or a change in a side signal; inactive = flat fitted curve, though single readings scatter; the % refers to the signal ratio. Where the call is inconclusive, the potency comes from a doubtful curve fit.

Assay: qHTS Assay to Find Inhibitors of Chronic Active B-Cell Receptor Signaling;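 for activity change, negative = inhibition: plate controls were basal doxycycline-induced cells for no effect and cells given 10 µM MG132 for full effect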
Conditions: ABC-DLBCL IkBa-CBG/CBR reporter, luminescence ratio (green luciferase fused to IkBa over red control in TMD8 lymphoma cells), 4 h; activity change, negative = inhibition: at 46.1 µM (top of the series)
Procedure, shortened: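 Compounds up to 46 uM were incubated four hours with TMD8 cells whose green CBG68 luciferase is fused to IkappaBalpha; red CBR luminescence normalised the signal, and concentration-effect curves were fitted to fusion, red and ratio data.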
Potency is the fitted concentration of half-maximal effect.

Compound	activity change, negative = inhibition	Potency
COc1cc(-c2nnc(SCC(=O)c3cc(C)n(CC4CCCO4)c3C)o2)cc(OC)c1OC (stereo not given)	inactive: 9.93%	–
Cc1c(C(=O)Nc2ccc(OC(F)(F)F)cc2)sc2nc3n(c(=O)c12)CCC3	inconclusive: 18.4%	–
COC(=O)c1sc2nc(C)cc(C)c2c1N	inconclusive: 14%	–
O=C(Oc1ccccc1/C=C\C(=O)c1cc2ccccc2o1)c1ccccc1	inactive: -7.39%	–
COC(=O)C1(C(C[N+](=O)[O-])c2ccco2)C(=O)NCC1c1ccccc1 (stereo not given)	inconclusive: 7.65%	–
C=CCSc1ncccc1C(=O)NCCc1ccccc1	inconclusive: 6.56%	–
CCCCCN=Cc1c(C)[nH]n(-c2nc3ccccc3s2)c1=O	–	inconclusive: 10 µM [falling, partial curve]
COC(=O)c1ccc(N=Nc2c(C)[nH]n(-c3ccccc3)c2=O)cc1	inconclusive: -15.4%	–
COc1ccc(/C=N/Nc2nc(-c3ccc(Cl)cc3)cc(C(F)(F)F)n2)c(OC)c1	inactive: -4.04%	–
Cc1cc(=O)oc2cc(OCC(=O)N/N=C/c3ccccc3O)ccc12	inconclusive: -0.0736%	–
COc1ccc(NC(=O)CN(c2cc(C)cc(C)c2)S(=O)(=O)c2c(C)noc2C)cc1	inconclusive: 1.98%	–
CCC(COC)NCc1cn(-c2ccc(OC)cc2)nc1-c1cccc(F)c1 (stereo not given)	inactive: -1.58%	–
c1ccc(Nc2nc(N3CCNCC3)nc(N3CCOCC3)n2)cc1	–	inconclusive: 4.61 µM [falling, partial curve, poor fit]
OCCCNCc1ccc(N(c2ccccc2)c2ccccc2)cc1	inconclusive: -29.5%	–
CSc1nc2ccc(NC(=O)c3cccs3)cc2s1	inconclusive: -15.2%	–
Cc1cccc(C(c2c(C)nn(-c3ccccc3)c2N)c2c(C)nn(-c3ccccc3)c2N)c1	inactive: -9.78%	–
CC(=O)NC(Cc1ccccc1)C(=O)NC1CCN(C(=O)c2cnccn2)CC1 (stereo not given)	inconclusive: 5.74%	–
O=C(CSc1nc2ccc(N3CCOCC3)cc2c(=O)n1CCc1ccccc1)NCC1CCCO1 (stereo not given)	–	inconclusive: 35.5 µM [rising, single point]
CC(C)(C)OC(=O)N[C@@H](C(=O)OC(C)(C)C)c1ccccc1	inactive: 2.53%	–
O=C(NCCS(=O)(=O)N1CCN(c2ccccc2)CC1)c1ccccc1F	inconclusive: 3%	–
CCN(CC)S(=O)(=O)c1ccc(C(=O)OCC(=O)NCc2ccco2)cc1	inactive: 0.697%	–
C=CCC[C@@H](Cc1ccc(F)cc1)C(=O)OC[C@@H]1CCCN1C(=O)[C@@H](CC=C)CC(=O)N[C@@H](CO)Cc1ccccc1	inconclusive: -8.06%	–
CCc1cccc(NC(=O)Cc2ccc([N+](=O)[O-])cc2)c1	inconclusive: 0.38%	–
O=C(CN(c1ccc(F)cc1)S(=O)(=O)c1ccccc1)NCCSC1CCCCC1	inactive: 1.78%	–
Cc1nn(C)c(C(=O)Nc2ccn(Cc3ccccc3F)n2)c1[N+](=O)[O-]	inconclusive: 5.4%	–
N#Cc1ccc(COc2cccc3cccnc23)cc1	inactive: 3.28%	–
CCOc1ccc(NC(=O)CSC2=Nc3ccccc3C3=NC(CCC(=O)NCc4ccco4)C(=O)N23)cc1 (stereo not given)	inconclusive: 24.5%	–

Full records from above.
`O=C(NCCS(=O)(=O)N1CCN(c2ccccc2)CC1)c1ccccc1F` in the list: activity change, negative = inhibition: inconclusive: 3%
`CCOc1ccc(NC(=O)CSC2=Nc3ccccc3C3=NC(CCC(=O)NCc4ccco4)C(=O)N23)cc1` (stereo not given) in the list: activity change, negative = inhibition: inconclusive: 24.5%
`c1ccc(Nc2nc(N3CCNCC3)nc(N3CCOCC3)n2)cc1` in the list: Potency: inconclusive: 4.61 µM [falling, partial curve, poor fit]
`O=C(Oc1ccccc1/C=C\C(=O)c1cc2ccccc2o1)c1ccccc1` in the list: activity change, negative = inhibition: inactive: -7.39%

Additional structures follow:

Compound	activity change, negative = inhibition	Potency
CC(/C=C/C1[C@H](C)C[C@H](O[C@@H]2O[C@H](CO)[C@@H](O)[C@H](O)[C@H]2O)CC1(C)C)O[C@H]1O[C@H](CO)[C@@H](O)[C@H](O)[C@H]1O (stereo not given in full)	inconclusive: 14.4%	–
OC[C@@H](O)[C@H](O)C(/C=N/Nc1ccccc1)=N\Nc1ccccc1	inconclusive: -0.18%	–
CCCCOC(=O)c1ccc(NC(=O)CSc2nnnn2C)cc1	inconclusive: 18%	–
Cc1ccnc(N/C=C/C(=O)c2ccc(Br)cc2)c1	–	inconclusive: 17.8 µM [falling, partial curve]
COc1cccc(CNC(=O)c2ccc(OCC(=O)N3CCOCC3)c(OC)c2)c1	inconclusive: -2.72%	–
CC(=O)/C(=N\Nc1ccc(Cl)cc1)Sc1nnc(-c2ccccc2)n1-c1ccccc1	–	inconclusive: 29.1 µM [falling, single point]
Cc1ccc(C(=O)OCC(=O)NCc2cccs2)c(C)c1	–	inconclusive: 11.2 µM [falling, partial curve]
NC(=O)c1c(NC(=O)CS(=O)(=O)c2ccc(Cl)cc2)sc2c1CCCCC2	inactive: -0.0248%	–
COc1ccc(/C=C/C(=O)Nc2cccc(C(C)=O)c2)cc1	–	inconclusive: 23.1 µM [falling, partial curve, poor fit]
CNc1nc(-c2ccccc2)nc(-c2ccc(OC)cc2)c1C#N	inactive: 6.8%	–
COc1ccc(C(CNc2ncnc3sc(C)c(C)c23)N(C)C)cc1 (stereo not given)	inconclusive: 3.33%	–
Cc1c(NC(=O)OCCNC(=O)COc2ccc(Cl)cc2Cl)sc(=S)n1C	inconclusive: 10.2%	–
O=C(O)C1CCN(C(=O)COc2ccc3c(c2)oc(=O)c2ccccc23)CC1	–	inconclusive: 35.5 µM [rising, single point]
CCn1cc(C(=O)N[C@@H](CCSC)C(=O)NCCCOC)c(=O)c2cc3c(cc21)OCO3	inconclusive: -0.454%	–
O=C(/C=C/Nc1ccc(S(=O)(=O)Nc2ncccn2)cc1)c1ccc(Cl)c(Cl)c1	–	inconclusive: 2.31 µM [falling, full curve]
COc1cc(C2CC(=O)C3=C(C2)Nc2ncnn2C3c2cccs2)cc(OC)c1OC (stereo not given)	inactive: -0.755%	–
Cc1ccc(C)c(Oc2ncnc(N)c2[N+](=O)[O-])c1	inactive: -10.4%	–
Cc1nc(NC(C)C)c2cnn(CCc3ccccc3)c2n1	inconclusive: -0.846%	–
CN1C(=O)/C(=C2\SC(N3CCCCCC3)=NC2=O)c2ccccc21	–	inconclusive: 1.84 µM [falling, partial curve]
COc1cccc(NC(=O)/C=C/c2ccco2)c1	–	inconclusive: 15.8 µM [falling, partial curve]
CN1CCN(S(=O)(=O)c2ccc(N(C)Cc3ccc(C(F)(F)F)cc3)c([N+](=O)[O-])c2)CC1	inconclusive: -9.27%	–
COc1ccc(C(=O)Nc2cc(Cl)ccc2OC(=O)c2ccc(OC)cc2)cc1	inconclusive: -4.22%	–
O=C(NCCCn1ccnc1)c1cccc(S(=O)(=O)N2CCCCCC2)c1	inconclusive: 14.2%	–
COc1cccc(NC(=S)NNC(=O)Cn2nc(C(F)F)cc2C(F)F)c1	inactive: 3.27%	–
O=C(CCl)Nc1ccccc1C(=O)NCc1ccccc1	–	inconclusive: 17.8 µM [falling, partial curve, poor fit]
Cc1ccc(Sc2ncccc2C(=O)NCC(c2ccc(F)cc2)N2CCOCC2)c(C)c1 (stereo not given)	inconclusive: 0.589%	–
O=C(CN1C(=O)NC2(CCCCC2)C1=O)Nc1ccc(F)cc1	–	inconclusive: 28.2 µM [falling, single point]

Compound	activity change, negative = inhibition	Potency
CCc1ccc2nc(N3CCN(C)CC3)c(C#N)cc2c1	inconclusive: 6.72%	–
Cc1c(NC(=O)c2ccc(=O)oc2)c(=O)n(-c2ccccc2)n1C	inconclusive: 8.64%	–
CCN(CC)CC#CCC(O)(c1ccccc1)C1CCCC1 (stereo not given)	inconclusive: 0.772%	–
Cc1cnc(NC(=O)c2cc3c(C)nn(Cc4ccccc4Cl)c3s2)s1	inactive: -1.38%	–
CCN(CC)S(=O)(=O)c1cccc(C(=O)N/N=C/c2cccc(O)c2O)c1	inconclusive: -7.61%	–
O=C(CCN1C(=O)/C(=C\c2cccs2)SC1=S)Nc1nccs1	–	inconclusive: 29.1 µM [falling, single point]
COc1ccc(OC)c(NC(=O)c2ccno2)c1	inactive: 2.96%	–
CCCCNC(=O)C1CCN(c2nc(C)cc(C)n2)CC1	inconclusive: -0.574%	–
Brc1ccccc1-c1nc(-c2ccccc2)no1	inconclusive: 0.0109%	–
CCn1cc(C2=NCCO2)c2ccccc21	–	inconclusive: 3.66 µM [rising, partial curve, poor fit]
O=C1c2c([N+](=O)[O-])cc([N+](=O)[O-])cc2S(=O)N1Cc1ccccc1 (stereo not given)	inconclusive: 29.4%	–
Cc1noc(C)c1C(=O)Nc1ccc(Cl)cc1C(F)(F)F	inconclusive: -0.916%	–
O=C(N/N=C/C=C/c1ccccc1[N+](=O)[O-])c1cccs1	–	inconclusive: 18.4 µM [falling, partial curve]
Cc1csc(CCc2nc(C)cs2)n1	inconclusive: -2.37%	–
COc1cccc(Oc2ccc(C(F)(F)F)cc2NC(=O)CCc2nc3ccccc3c(=O)[nH]2)c1	inactive: 3.93%	–
COc1ccc(OC)c(CNc2ccc3c(c2)CCC3)c1	inconclusive: 3.37%	–
NC(=O)CC(NC(=O)c1cccc(Br)c1)c1ccc(N2CCCCCC2)c([N+](=O)[O-])c1 (stereo not given)	–	inconclusive: 20 µM [falling, single point]
O=C(NCCCN1CCOCC1)c1ccccc1N1C(=O)[C@@H]2Cc3c([nH]c4ccccc34)C(c3ccc(F)cc3)N2C1=O (stereo not given in full)	inactive: 8.98%	–
CCCCOc1ccc(CSCCNC(=S)Nc2ccccc2)cc1	–	inconclusive: 23.1 µM [rising, partial curve, poor fit]
COc1ccccc1Nc1n[nH]c(=S)s1	–	inconclusive: 12.6 µM [falling, partial curve]
O=c1cc(N2CCN(Cc3ccccc3)CC2)[nH]c(=O)n1Cc1ccc(F)cc1	inactive: -1.45%	–
O=C(Nc1ccc2c(c1)OCCO2)c1ccc2nccnc2c1	–	inconclusive: 28.2 µM [falling, single point]
C[C@@H](NC(=O)/C(C#N)=C/c1ccc(O)c(O)c1)c1ccccc1	inactive: -5.66%	–
CC(C)c1ccc(NC(=O)c2cc(S(=O)(=O)N(C)C3CCCCC3)ccc2F)cc1	inconclusive: 15.1%	–
CC1CCCC(NC(=O)Cn2cc(Br)ccc2=O)C1C (stereo not given)	inactive: -3.59%	–
N/C(=N\OC(=O)N1c2ccccc2Sc2ccccc21)c1ccccc1	–	inconclusive: 20.6 µM [falling, single point]
